Results published in doi:10.1101/2021.05.13.443687.
Results are given in words; binding and its absence hold for the method and conditions named. In cells and extracts the contact can be indirect. Some results given as binding are weak or reduced against the parent protein; the word gives no strength. For part of these data: Tags and fused reporters may be left off the sequences shown.

By UniProt entry, the sequences of proteins in these tests, tags left out. Residues count along the entry.
UniProt Q9HD67, 1486-2058: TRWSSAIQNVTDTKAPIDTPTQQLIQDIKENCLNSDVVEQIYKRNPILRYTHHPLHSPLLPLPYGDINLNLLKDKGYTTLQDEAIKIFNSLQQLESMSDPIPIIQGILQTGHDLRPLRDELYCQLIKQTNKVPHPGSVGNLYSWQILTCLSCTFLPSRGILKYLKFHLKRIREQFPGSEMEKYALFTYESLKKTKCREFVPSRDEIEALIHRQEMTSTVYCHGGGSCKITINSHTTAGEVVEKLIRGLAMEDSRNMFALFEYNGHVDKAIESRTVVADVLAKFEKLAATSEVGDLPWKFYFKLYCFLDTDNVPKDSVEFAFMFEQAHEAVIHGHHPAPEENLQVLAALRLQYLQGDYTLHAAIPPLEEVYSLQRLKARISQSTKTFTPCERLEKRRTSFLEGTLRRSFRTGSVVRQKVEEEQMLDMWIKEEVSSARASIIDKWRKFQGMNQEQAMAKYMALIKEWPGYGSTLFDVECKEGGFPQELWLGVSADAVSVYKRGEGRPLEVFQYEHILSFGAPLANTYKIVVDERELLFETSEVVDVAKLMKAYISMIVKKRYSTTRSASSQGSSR
UniProt Q9Y6W5, whole entry: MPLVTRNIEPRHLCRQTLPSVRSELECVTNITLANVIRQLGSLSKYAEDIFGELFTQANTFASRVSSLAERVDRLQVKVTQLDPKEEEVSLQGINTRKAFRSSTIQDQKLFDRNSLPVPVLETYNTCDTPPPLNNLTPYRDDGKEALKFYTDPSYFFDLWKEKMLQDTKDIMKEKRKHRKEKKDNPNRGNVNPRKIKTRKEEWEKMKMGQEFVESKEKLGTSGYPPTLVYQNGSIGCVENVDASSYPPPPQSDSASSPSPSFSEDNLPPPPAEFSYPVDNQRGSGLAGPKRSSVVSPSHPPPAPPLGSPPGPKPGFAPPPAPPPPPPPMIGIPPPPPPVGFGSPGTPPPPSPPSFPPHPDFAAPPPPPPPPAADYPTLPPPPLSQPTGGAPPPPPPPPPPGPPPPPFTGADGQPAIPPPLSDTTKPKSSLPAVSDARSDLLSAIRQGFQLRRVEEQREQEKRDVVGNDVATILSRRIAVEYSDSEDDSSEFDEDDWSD
UniProt Q9Y6W5, 300-419: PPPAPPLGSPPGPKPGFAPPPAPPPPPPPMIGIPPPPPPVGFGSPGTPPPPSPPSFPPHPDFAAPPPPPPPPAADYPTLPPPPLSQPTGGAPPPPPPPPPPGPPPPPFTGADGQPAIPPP
UniProt Q9NSV4, 1-1057: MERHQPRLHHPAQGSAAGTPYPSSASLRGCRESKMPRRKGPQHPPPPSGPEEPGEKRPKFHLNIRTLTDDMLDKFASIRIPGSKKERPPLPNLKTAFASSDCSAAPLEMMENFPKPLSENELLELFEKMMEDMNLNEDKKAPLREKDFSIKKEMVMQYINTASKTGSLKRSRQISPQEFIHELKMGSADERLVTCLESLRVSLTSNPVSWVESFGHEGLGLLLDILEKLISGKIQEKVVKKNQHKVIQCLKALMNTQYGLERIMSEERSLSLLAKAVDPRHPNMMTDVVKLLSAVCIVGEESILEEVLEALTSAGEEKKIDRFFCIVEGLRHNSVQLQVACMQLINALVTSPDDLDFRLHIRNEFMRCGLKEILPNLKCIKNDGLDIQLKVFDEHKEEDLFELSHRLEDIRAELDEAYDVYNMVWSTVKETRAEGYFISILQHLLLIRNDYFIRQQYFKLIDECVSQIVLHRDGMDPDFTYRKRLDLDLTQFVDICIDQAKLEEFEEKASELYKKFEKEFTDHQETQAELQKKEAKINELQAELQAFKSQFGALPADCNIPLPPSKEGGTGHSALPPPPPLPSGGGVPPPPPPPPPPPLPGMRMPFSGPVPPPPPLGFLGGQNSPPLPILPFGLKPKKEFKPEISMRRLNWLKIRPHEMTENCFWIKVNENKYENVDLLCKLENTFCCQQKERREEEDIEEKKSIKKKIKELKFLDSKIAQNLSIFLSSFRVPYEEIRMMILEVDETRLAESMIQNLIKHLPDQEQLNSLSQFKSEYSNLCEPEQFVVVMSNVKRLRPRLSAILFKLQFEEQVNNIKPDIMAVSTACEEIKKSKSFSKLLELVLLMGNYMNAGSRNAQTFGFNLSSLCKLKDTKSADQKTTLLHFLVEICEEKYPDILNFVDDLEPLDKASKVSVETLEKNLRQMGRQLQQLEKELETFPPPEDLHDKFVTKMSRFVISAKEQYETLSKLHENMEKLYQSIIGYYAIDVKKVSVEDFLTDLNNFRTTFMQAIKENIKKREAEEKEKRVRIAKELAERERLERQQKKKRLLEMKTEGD
UniProt Q9NSV4, 506-696: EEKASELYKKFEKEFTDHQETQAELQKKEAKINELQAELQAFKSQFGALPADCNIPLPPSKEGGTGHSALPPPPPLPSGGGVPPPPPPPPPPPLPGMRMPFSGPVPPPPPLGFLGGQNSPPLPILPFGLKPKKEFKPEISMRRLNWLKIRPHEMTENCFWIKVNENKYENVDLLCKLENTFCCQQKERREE

How the values were obtained:
[1] = molecular target: GST-Myo10 Myth-FERM domain (aa1486-2058) (UniProt Q9HD67); test: pull-down
[2] = molecular target: T1, GST-ARHGAP39 aa1-134 (Wdom) (UniProt Q9C0H5); test: pull-down
T1 sequence: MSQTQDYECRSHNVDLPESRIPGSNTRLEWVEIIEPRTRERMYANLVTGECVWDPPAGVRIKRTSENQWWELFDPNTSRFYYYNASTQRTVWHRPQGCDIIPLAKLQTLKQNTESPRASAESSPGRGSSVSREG

HA-ARHGAP39-3YA (Y313, 325, 785A) (from UniProt Q9C0H5 1-1083)
binding [1]: no binding

HA-WAVE2 full-length (from UniProt Q9Y6W5 1-498)
binding [2]: binds

HA-WAVE2 poly-proline region (PP, aa300-419) (from UniProt Q9Y6W5 300-419) (domain or fragment)
binding [2]: binds

HA-mDia2 FH1 domain (aa506-696) (from UniProt Q9NSV4 506-696) (domain or fragment)
binding [2]: binds

HA-mDia2 deltaDAD (aa1-1057) (from UniProt Q9NSV4 1-1057) (domain or fragment)
binding [2]: binds

endogenous WAVE (from UniProt Q9Y6W5 1-498)
binding [2]: binds
